In PubChem BioAssay AID624405 (Broad Institute, 2012):
Among all 1,900 compounds or so, about 250 (13%) were called active. Inconclusive results (about 4%) are left out.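 The calls were made as follows: active = fitted curve reaches 40% rescue activity at or below the top valid dose, in every test run; inconclusive = test runs disagree, some active and some inactive; inactive = every run misses the threshold or moves the wrong way.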 Only a part is listed here, and it is no random draw. Measured potencies and affinities stand elsewhere.

Assay: rescue of simvastatin-induced ATP loss – cell-based, C2C12 myotubes, ATP luminescence, cherry pick, dose response (AID 624405);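 also: myotubes are challenged with simvastatin at 10 µM to lower ATP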
Settings: 48 h; at 19.5 µM (top of the series)
For `COC(=O)C1=C(c2ccc(OC)c(OC)c2)C[C@@H]2CC[C@H]1N2C(=O)NCCOc1ccc(OC)cc1`, the rescue activity (ATP increase) was inactive: 6%. In the case of `CCCCC1(CN2CCCC2=O)C(=O)NC(=O)NC1=O`, the rescue activity (ATP increase) is reported as inactive: 20.4%. With `CN(CC1COc2ccccc2O1)c1nc(-c2cccnc2)nc2ccccc12` (stereo unspecified) the rescue activity (ATP increase) was inactive: -52.4%. For `COc1ccc(C(C)=O)cc1Cc1c(O)[nH]c(=S)[nH]c1=O`, the rescue activity (ATP increase) was inactive: -4.06%. In the case of `O=c1c2ccccc2nc(-c2ccco2)n1-c1ccccn1`, the rescue activity (ATP increase) is reported as inactive: 20.1%. In the case of `Cc1cccc(NP(C)(=O)c2nc3c(s2)CCCC3)c1` (stereo unspecified), the rescue activity (ATP increase) is reported as inactive: 26.8%. For `CCN1CCN(C(=O)Cc2coc3cc(C)cc(C)c23)CC1`, the rescue activity (ATP increase) was inactive: 2.57%. In the case of `CC12CN3CC(C)(CN(C1)C3c1cccnc1)C2=O` (stereo unspecified), the rescue activity (ATP increase) is reported as inactive: -7.92%. For `CCC1(Oc2ccccc2)C(=O)NC(=O)NC1=O`, the rescue activity (ATP increase) was inactive: -72.5%. With `CC#CP(=O)(OC)C(O)(CF)c1ccccc1` (stereo unspecified) the rescue activity (ATP increase) was inactive: -37.8%. For `CCN(CC)C(=O)c1ccc2c(c1)C1C=CCC1C(C(=O)O)N2` (stereo unspecified), the rescue activity (ATP increase) was inactive: 7.72%. For `O=C1C2CCCN2C(c2cccnc2)N1c1nccs1` (stereo unspecified), the rescue activity (ATP increase) was inactive: 7.38%. With `CCOc1ccc(-n2c(CC)nc3ccccc3c2=O)cc1` the rescue activity (ATP increase) was inactive: 0.662%. With `CC12CN3CN(C1)CC(c1ccccc1)(C3)C2=O` the rescue activity (ATP increase) was inactive: -11.5%. For `COC(=O)[C@H]1C[C@@H]1[C@H](NP(=O)(c1ccccc1)c1ccccc1)c1ccccc1`, the rescue activity (ATP increase) was inactive: 14.8%. In the case of `CN1CCN(c2nccc3c2ncn3C)CC1`, the rescue activity (ATP increase) is reported as inactive: -26.9%. For `CCC12CN3CC(CC)(CN(C1)C3c1cccnc1)C2=O` (stereo unspecified), the rescue activity (ATP increase) was inactive: 13.8%. With `CCc1nc2ccccc2c(=O)n1-c1ccc2ccccc2c1` the rescue activity (ATP increase) was inactive: 18.4%. In the case of `C=COCCn1c(C)c(C(C)=O)c2cc(O)ccc21`, the rescue activity (ATP increase) is reported as inactive: 1.46%. With `O=C1/C(=C\c2ccccc2)C2OCC=C3CN4CCC56c7ccccc7N1C5C2C3CC46` (stereo unspecified) the rescue activity (ATP increase) was inactive: 26.3%. With `CN1C(=O)C(C2c3ccccc3C(=O)N2Cc2ccccc2)C(=O)N(C)C1=O` (stereo unspecified) the rescue activity (ATP increase) was inactive: 0.403%.
